The other results are listed elsewhere or left out. The data scatter; read single values as rough.
How the values were obtained:
[1] = compound: ClCC(=O)N[C@@H]1CCCc2ccccc12; test: log2 mean competition ratio of IA-DTB cysteine labelling (DMSO/compound) (log2 ratio); higher = stronger cysteine engagement by compound; settings: treatment time: 4 h, cell line lysate: HEK293T
Procedure: (§1)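 IA-DTB competitive cysteine chemoproteomics in HEK293T RIPA lysate. Lysates were treated with compound 29 or 30 at 50 or 200 µM for 4 h, then IA-DTB (500 µM, 1 h), trypsin-digested, NeutrAvidin-enriched and analysed by diaPASEF. Competition ratio = intensity DMSO / intensity compound (n=4 treated, n=64 DMSO); binding: mean log2 CR ≥ 1 and p ≤ 0.05 plus QC filters. Target is the cysteine site.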

Amino acid sequences for entries named in this document (tags omitted). A change or cut given only in a name is not applied to a line headed by its entry. Residues count along the entry.
UniProt Q9ULT8, 1785-1816: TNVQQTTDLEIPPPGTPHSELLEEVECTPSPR
UniProt Q00839, 638-664: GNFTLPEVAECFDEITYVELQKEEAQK
UniProt P35914: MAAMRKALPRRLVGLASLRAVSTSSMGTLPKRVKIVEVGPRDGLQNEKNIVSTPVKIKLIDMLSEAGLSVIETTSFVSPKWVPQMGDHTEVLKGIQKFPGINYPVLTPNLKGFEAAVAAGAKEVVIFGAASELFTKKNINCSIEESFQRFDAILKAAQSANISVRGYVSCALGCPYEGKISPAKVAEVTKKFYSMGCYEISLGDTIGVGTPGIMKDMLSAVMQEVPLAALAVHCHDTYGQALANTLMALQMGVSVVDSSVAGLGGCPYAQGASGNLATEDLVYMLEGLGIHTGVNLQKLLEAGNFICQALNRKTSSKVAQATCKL
UniProt Q12789: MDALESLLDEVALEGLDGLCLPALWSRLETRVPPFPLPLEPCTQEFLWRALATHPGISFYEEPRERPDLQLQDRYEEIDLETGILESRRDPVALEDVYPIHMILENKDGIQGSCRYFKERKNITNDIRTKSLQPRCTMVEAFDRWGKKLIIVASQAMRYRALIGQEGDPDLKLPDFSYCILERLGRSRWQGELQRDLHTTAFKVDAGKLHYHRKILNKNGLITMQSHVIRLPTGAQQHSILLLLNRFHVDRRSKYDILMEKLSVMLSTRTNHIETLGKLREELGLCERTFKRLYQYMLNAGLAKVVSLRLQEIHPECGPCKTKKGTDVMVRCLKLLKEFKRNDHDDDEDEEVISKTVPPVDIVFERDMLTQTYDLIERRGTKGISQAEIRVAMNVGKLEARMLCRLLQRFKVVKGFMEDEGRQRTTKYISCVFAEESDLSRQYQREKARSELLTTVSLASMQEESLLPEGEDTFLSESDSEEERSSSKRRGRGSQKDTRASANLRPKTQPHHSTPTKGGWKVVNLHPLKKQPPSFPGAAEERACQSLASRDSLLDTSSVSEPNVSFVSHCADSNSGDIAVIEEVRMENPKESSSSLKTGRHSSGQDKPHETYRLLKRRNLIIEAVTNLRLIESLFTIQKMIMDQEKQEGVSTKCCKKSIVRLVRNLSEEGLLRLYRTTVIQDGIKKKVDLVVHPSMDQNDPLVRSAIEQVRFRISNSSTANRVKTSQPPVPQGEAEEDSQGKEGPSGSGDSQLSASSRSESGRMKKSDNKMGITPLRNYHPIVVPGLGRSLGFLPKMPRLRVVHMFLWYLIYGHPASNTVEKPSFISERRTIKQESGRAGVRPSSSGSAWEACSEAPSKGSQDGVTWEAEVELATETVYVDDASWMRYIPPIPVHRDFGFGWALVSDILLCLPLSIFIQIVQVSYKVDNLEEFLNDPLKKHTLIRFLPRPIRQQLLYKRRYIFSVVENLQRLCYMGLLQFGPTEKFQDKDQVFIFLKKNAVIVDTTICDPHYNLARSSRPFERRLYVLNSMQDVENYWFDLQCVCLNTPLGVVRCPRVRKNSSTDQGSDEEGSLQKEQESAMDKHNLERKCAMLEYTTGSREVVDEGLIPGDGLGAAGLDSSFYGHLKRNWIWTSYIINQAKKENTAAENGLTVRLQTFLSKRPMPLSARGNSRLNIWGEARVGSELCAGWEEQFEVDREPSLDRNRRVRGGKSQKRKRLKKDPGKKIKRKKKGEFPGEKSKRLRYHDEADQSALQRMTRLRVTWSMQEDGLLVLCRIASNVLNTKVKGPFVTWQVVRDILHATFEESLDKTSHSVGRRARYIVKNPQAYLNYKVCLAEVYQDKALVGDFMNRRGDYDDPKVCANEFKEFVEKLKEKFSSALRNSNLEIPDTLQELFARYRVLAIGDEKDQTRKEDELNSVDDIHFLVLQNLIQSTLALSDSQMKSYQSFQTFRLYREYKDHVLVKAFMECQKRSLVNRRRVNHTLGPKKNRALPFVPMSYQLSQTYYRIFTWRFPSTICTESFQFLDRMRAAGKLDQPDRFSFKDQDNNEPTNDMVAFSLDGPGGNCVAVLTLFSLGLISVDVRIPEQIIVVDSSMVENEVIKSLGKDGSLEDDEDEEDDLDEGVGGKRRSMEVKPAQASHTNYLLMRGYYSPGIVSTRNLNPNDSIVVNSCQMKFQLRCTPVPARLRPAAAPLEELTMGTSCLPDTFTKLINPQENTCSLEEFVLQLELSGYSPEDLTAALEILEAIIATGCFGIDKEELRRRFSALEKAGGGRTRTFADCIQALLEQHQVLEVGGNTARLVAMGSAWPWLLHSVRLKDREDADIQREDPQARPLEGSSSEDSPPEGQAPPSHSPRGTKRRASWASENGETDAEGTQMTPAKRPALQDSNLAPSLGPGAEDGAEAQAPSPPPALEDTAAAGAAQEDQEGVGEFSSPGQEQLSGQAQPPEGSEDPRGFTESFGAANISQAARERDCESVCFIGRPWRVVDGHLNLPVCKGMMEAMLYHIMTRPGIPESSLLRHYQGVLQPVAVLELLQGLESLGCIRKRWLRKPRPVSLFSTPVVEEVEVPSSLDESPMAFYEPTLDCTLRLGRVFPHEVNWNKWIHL
UniProt P28161: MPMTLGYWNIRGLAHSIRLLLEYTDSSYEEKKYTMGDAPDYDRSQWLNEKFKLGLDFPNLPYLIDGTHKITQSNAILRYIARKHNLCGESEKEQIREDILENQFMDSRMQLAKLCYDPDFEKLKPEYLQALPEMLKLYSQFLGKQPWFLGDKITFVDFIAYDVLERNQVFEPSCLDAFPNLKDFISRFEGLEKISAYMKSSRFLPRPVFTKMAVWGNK
UniProt Q01581: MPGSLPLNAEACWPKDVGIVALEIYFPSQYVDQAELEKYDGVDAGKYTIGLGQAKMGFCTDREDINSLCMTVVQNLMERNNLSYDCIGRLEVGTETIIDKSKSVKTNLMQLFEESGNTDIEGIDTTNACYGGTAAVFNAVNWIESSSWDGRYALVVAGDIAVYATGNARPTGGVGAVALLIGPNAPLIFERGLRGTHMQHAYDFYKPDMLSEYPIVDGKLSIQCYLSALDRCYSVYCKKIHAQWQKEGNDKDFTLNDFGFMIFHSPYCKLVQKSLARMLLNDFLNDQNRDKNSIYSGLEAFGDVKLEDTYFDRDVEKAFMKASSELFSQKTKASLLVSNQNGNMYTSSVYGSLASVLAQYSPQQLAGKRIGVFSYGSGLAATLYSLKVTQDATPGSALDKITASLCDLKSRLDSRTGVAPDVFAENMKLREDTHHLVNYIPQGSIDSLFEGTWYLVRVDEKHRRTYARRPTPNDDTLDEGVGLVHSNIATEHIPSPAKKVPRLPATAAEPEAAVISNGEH
UniProt Q8NG08: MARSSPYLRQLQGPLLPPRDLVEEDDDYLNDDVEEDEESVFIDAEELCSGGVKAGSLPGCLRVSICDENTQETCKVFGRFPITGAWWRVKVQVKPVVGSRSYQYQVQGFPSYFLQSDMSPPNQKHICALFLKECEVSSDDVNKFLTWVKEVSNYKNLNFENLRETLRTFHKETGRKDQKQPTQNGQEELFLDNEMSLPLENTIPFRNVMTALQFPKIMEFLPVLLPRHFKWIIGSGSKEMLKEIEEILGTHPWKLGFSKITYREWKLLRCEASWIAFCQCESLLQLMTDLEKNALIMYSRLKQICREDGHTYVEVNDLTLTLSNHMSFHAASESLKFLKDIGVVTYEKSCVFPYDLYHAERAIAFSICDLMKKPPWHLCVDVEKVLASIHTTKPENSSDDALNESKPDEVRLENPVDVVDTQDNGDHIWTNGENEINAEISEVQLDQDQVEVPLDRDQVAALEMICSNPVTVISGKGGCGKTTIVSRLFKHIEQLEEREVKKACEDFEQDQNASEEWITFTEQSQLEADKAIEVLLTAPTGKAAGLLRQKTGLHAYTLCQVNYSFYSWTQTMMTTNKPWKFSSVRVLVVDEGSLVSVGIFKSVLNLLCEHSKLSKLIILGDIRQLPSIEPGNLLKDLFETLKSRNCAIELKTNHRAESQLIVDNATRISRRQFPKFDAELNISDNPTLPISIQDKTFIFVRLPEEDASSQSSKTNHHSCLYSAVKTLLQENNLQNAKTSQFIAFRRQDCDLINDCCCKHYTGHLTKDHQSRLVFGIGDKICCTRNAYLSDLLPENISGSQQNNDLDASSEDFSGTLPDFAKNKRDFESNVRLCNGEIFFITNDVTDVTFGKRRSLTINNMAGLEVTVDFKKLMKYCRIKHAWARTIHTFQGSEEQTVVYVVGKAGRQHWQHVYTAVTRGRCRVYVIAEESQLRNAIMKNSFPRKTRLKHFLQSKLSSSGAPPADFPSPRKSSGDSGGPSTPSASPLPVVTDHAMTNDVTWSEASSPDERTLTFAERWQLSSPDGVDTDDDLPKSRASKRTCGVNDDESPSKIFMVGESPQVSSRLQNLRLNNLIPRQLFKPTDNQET
UniProt Q86XA9: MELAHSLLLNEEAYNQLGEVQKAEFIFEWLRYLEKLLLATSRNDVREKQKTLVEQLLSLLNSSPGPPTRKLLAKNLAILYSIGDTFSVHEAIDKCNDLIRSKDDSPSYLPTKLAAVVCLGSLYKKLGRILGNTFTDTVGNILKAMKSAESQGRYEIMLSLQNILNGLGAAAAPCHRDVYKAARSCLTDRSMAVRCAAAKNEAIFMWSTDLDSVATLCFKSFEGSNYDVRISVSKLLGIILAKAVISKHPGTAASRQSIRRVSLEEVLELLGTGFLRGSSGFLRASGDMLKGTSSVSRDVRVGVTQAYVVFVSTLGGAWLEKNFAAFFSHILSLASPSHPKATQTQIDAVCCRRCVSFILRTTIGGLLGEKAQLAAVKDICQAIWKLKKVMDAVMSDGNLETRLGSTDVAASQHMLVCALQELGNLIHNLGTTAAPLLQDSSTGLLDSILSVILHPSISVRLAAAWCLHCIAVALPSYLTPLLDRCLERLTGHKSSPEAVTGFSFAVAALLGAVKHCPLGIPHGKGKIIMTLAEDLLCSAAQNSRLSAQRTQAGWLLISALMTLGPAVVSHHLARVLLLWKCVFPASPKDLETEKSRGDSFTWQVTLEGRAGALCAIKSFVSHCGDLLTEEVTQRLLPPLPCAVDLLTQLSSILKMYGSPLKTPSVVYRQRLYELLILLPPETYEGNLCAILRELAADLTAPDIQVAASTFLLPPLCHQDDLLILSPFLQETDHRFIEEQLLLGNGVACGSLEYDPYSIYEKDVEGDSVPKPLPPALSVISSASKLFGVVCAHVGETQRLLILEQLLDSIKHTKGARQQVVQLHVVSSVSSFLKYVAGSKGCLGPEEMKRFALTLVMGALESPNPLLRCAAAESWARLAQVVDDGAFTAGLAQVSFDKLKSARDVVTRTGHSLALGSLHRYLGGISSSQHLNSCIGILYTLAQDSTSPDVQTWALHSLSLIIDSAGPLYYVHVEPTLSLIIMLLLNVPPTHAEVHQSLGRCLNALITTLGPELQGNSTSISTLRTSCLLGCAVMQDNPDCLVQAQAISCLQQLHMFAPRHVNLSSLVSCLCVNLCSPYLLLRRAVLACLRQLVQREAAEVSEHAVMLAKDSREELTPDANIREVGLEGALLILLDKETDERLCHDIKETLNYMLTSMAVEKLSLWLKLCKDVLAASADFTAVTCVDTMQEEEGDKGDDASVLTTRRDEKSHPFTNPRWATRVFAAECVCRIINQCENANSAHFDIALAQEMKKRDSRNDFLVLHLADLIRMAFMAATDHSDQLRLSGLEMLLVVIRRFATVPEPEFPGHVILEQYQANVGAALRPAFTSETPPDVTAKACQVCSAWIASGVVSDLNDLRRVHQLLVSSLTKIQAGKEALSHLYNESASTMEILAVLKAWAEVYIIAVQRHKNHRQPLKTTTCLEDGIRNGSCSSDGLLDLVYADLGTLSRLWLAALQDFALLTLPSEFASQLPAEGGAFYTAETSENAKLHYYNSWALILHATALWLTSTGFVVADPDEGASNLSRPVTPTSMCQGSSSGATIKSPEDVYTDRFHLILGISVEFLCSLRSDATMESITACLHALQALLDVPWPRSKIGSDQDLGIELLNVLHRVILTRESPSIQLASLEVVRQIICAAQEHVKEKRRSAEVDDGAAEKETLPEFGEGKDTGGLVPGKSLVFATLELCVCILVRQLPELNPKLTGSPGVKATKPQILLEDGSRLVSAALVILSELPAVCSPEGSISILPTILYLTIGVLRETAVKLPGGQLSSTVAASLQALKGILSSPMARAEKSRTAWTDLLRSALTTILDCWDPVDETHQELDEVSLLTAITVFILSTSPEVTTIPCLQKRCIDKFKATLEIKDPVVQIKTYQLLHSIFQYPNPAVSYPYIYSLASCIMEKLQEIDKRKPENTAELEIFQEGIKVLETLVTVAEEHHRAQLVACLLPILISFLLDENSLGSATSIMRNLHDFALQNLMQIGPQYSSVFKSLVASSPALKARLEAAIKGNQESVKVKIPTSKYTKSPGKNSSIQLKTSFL
UniProt Q7Z4H3, 141-163: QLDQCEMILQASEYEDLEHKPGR
UniProt Q1KMD3, 594-624: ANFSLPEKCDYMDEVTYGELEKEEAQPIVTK

[2] = compound: ClCC(=O)N[C@H]1CCCc2ccccc12; test: as above; settings: treatment time: 4 h, cell line lysate: HEK293T
Procedure: as §1

Row | Target | log2 mean competition ratio ([1]; 50 µM) | log2 mean competition ratio ([1]; 200 µM) | log2 mean competition ratio ([2]; 50 µM) | log2 mean competition ratio ([2]; 200 µM)
1 | HEATR1 C631 (UniProt Q9H583) | 0.244 | -0.0667 | – | –
2 | HECTD4 C1406 | 0.00303 | -0.00854 | – | –
3 | HIP1 C613 (UniProt O00291) | -0.113 | -0.145 | – | –
4 | HEXB C360 (UniProt P07686) | – | 0.00181 | – | –
5 | HECTD1 C2275 (UniProt Q9ULT8) | -0.116 | -0.211 | – | –
6 | HNRNPU C648 (UniProt Q00839) | -0.214 | -0.254 | – | –
7 | HMGCL C323 (UniProt P35914) | -0.1 | 0.0864 | – | –
8 | GTF3C1 C1999 (UniProt Q12789) | 0.357 | 0.63 | – | –
9 | HAUS6 C699 (UniProt Q7Z4H7) | -0.0282 | 0.0833 | – | –
10 | HDLBP C940 | -0.149 | 0.134 | – | –
11 | GSTM2 C115 (UniProt P28161) | – | 0.0999 | – | –
12 | HMGCS1 C86 (UniProt Q01581) | 0.581 | -0.193 | – | –
13 | HIRA C1007 (UniProt P54198) | 0.166 | -0.111 | – | –
14 | GTF3C4 C174 (UniProt Q9UKN8) | 0.426 | -0.112 | – | –
15 | HDGF C12 (UniProt P51858) | 0.685 | 0.0617 | – | –
16 | GTF3C5 C432 (UniProt Q9Y5Q8) | -0.0388 | 0.116 | – | –
17 | GSTO1 C192 | -0.337 | -0.882 | – | –
18 | HNRNPU C607 (UniProt Q00839) | 0.0229 | -0.336 | – | –
19 | HERC1 C4837 (UniProt Q15751) | 0.147 | 0.237 | – | –
20 | HELB C646 (UniProt Q8NG08) | -0.0492 | -0.0406 | – | –
21 | HECTD1 C369 (UniProt Q9ULT8) | -0.19 | 0.287 | – | –
22 | GTF3C1 C179 (UniProt Q12789) | -0.182 | – | – | –
23 | HNRNPH1 C22 (UniProt P31943) | 0.145 | -0.187 | – | –
24 | HEATR5A C614 (UniProt Q86XA9) | -0.0493 | 0.0291 | – | –

Row | Target | log2 mean competition ratio ([1]; 50 µM) | log2 mean competition ratio ([1]; 200 µM) | log2 mean competition ratio ([2]; 50 µM) | log2 mean competition ratio ([2]; 200 µM)
25 | HMGCS1 C406 (UniProt Q01581) | 0.468 | -0.247 | – | –
26 | HAUS6 C424 (UniProt Q7Z4H7) | 0.227 | 0.305 | – | –
27 | HIP1R C105 (UniProt O75146) | 0.132 | 0.145 | – | –
28 | GSTK1 C176 (UniProt Q9Y2Q3) | -0.104 | 0.291 | – | –
29 | GUF1 C338 (UniProt Q8N442) | -0.105 | -0.155 | – | –
30 | GTF3C5 C439 (UniProt Q9Y5Q8) | 0.0888 | 0.33 | – | –
31 | HELB C379 (UniProt Q8NG08) | 0.202 | 0.308 | – | –
32 | HAUS8 C182 (UniProt Q9BT25) | 0.0629 | 0.0802 | – | –
33 | HNRNPK C145 (UniProt P61978) | -0.236 | -0.0914 | – | –
34 | HEATR5A C623 (UniProt Q86XA9) | -0.135 | 0.00554 | – | –
35 | HAUS5 C446 (UniProt O94927) | -0.102 | -0.11 | – | –
36 | GTF2I C80 (UniProt P78347) | -0.244 | -0.257 | – | –
37 | H1-7 C53 (UniProt P35367) | 0.0119 | -0.0641 | – | –
38 | GXYLT1 C414 (UniProt Q4G148) | 0.0513 | -0.338 | – | –
39 | HDDC2 C145 (UniProt Q7Z4H3) | -0.0321 | 0.162 | 0.273 | 0.0701
40 | HMGCL C141 (UniProt P35914) | -0.077 | -0.347 | – | –
41 | GTF3C4 C764 (UniProt Q9UKN8) | 0.516 | 0.381 | – | –
42 | HDLBP C104 | 0.357 | -0.0177 | – | –
43 | HK2 C628 (UniProt P52789) | -0.219 | 0.00802 | -0.42 | 0.0724
44 | HLTF C360 (UniProt Q14527) | 0.14 | 0.0447 | – | –
45 | GXYLT1 C123 (UniProt Q4G148) | 0.415 | 0.367 | – | –
46 | HBS1L C504 (UniProt Q9Y450) | 0.134 | -0.129 | – | –
47 | HK1 C886 (UniProt P19367) | 0.107 | -0.191 | -0.00334 | -0.11
48 | HNRNPH2 C22 (UniProt P55795) | 0.369 | -0.179 | 0.601 | -0.00735

Row | Target | log2 mean competition ratio ([1]; 50 µM) | log2 mean competition ratio ([1]; 200 µM) | log2 mean competition ratio ([2]; 50 µM) | log2 mean competition ratio ([2]; 200 µM)
49 | GTF3C3 C239 (UniProt Q9Y5Q9) | 0.103 | -0.0794 | 0.163 | -0.11
50 | HAUS5 C12 (UniProt O94927) | 0.111 | -0.0627 | 0.438 | 0.0922
51 | HECTD4 C1636 | -0.0451 | 0.133 | 0.0723 | 0.232
52 | HOMER1 C234 (UniProt Q86YM7) | -0.172 | -0.37 | 0.175 | -0.191
53 | GTF3C1 C1363 (UniProt Q12789) | -0.00838 | -0.209 | – | –
54 | HJURP C327 (UniProt Q8NCD3) | -0.0124 | -0.476 | 0.162 | -0.317
55 | HBS1L C491 (UniProt Q9Y450) | -0.178 | -0.305 | – | –
56 | HNRNPUL2 C602 (UniProt Q1KMD3) | -0.0665 | -0.103 | – | –
57 | HADHA C322 (UniProt P40939) | -0.357 | -0.172 | -0.288 | -0.133
58 | HEATR5B C1693 (UniProt Q9P2D3) | 0.144 | -0.216 | – | –
59 | GTPBP1 C313 (UniProt O00178) | 0.0814 | -0.492 | – | –
60 | GTF3C1 C1471 (UniProt Q12789) | -0.0927 | -0.0821 | – | –
61 | GSTM3 C119 (UniProt P21266) | 0.0298 | -0.133 | -0.0953 | -0.0984
62 | HOXB6 C123 | 0.122 | 0.0857 | – | –
63 | HMGCR C382 (UniProt P04035) | -0.252 | -0.321 | – | –
64 | HECTD1 C1811 (UniProt Q9ULT8) | -0.469 | 0.381 | – | –
65 | GTF3C3 C172 (UniProt Q9Y5Q9) | -0.262 | 0.273 | – | –
66 | HEATR5A C1635 (UniProt Q86XA9) | -0.301 | -0.12 | – | –
67 | HNRNPA1 C175 | -0.143 | -0.0224 | – | –
68 | HAGHL C188 (UniProt Q6PII5) | 0.152 | -0.32 | 0.129 | -0.0286
69 | HK1 C834 (UniProt P19367) | 0.0429 | 0.0358 | – | –
70 | HELB C608 (UniProt Q8NG08) | -0.0385 | -0.0992 | – | –
71 | HMCES C266 (UniProt Q96FZ2) | -0.387 | -0.346 | – | –

Part of the list above in another layout.
Row,Target,log2 mean competition ratio ([1]; 50 µM),log2 mean competition ratio ([1]; 200 µM),log2 mean competition ratio ([2]; 50 µM),log2 mean competition ratio ([2]; 200 µM)
6,HNRNPU C648 (UniProt Q00839),-0.214,-0.254,–,–
7,HMGCL C323 (UniProt P35914),-0.1,0.0864,–,–
8,GTF3C1 C1999 (UniProt Q12789),0.357,0.63,–,–
9,HAUS6 C699 (UniProt Q7Z4H7),-0.0282,0.0833,–,–
10,HDLBP C940,-0.149,0.134,–,–
11,GSTM2 C115 (UniProt P28161),–,0.0999,–,–
12,HMGCS1 C86 (UniProt Q01581),0.581,-0.193,–,–
13,HIRA C1007 (UniProt P54198),0.166,-0.111,–,–
14,GTF3C4 C174 (UniProt Q9UKN8),0.426,-0.112,–,–
15,HDGF C12 (UniProt P51858),0.685,0.0617,–,–
16,GTF3C5 C432 (UniProt Q9Y5Q8),-0.0388,0.116,–,–
17,GSTO1 C192,-0.337,-0.882,–,–
18,HNRNPU C607 (UniProt Q00839),0.0229,-0.336,–,–
19,HERC1 C4837 (UniProt Q15751),0.147,0.237,–,–
20,HELB C646 (UniProt Q8NG08),-0.0492,-0.0406,–,–

Source: the supplement of paper PMC11732987, “Enantioselective OTUD7B fragment discovery through chemoproteomics screening and high-throughput optimisation” (Communications Chemistry, 2025)
